Data on 1 substance can be found in PMC7526444.

The chains behind the UniProt entries cited, without tags or fusion partners.
UniProt Q8N6T7: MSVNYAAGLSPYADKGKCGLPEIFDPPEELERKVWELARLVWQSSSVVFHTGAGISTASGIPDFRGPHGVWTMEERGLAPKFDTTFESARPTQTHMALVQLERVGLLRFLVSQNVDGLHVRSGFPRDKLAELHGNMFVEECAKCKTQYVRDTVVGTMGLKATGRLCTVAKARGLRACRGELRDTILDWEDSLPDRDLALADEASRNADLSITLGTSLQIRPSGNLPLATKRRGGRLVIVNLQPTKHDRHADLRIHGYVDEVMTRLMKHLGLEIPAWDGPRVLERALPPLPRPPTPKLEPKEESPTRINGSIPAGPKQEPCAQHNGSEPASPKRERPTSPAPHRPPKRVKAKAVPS

These are yes or no findings as the source states them, for the method shown. Binding seen in cells or lysates may run through a third protein. Some binding calls cover weakened binding; strength is not graded here.

The assay has as its target T1, estrogen-related receptor γ (ERRγ) (UniProt P62508).
T1 sequence: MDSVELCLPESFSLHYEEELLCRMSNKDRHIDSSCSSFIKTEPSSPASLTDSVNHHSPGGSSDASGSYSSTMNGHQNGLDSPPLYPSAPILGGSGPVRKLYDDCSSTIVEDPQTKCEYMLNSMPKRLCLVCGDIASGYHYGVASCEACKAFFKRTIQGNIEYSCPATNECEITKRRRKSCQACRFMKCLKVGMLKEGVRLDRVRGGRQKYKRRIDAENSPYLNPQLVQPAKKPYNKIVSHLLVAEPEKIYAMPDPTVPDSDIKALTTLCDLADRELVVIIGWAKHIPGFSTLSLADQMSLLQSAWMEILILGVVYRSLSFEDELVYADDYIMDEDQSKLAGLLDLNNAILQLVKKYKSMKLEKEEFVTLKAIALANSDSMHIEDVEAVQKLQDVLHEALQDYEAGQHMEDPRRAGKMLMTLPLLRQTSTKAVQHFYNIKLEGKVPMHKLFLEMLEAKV
Kind of assay: co-IP; HEK293T cells transfected with Sirt6 or mSirt6 together with p300 and ERRγ; lysates immunoprecipitated and blotted.

As for “Sirt6 (from UniProt Q8N6T7 1-355) (enzyme)”, the binding entry is “binds”.
